Record: PubChem BioAssay AID1159584 (Peter MacCallum Cancer Centre, 2016)

Aim: 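Knock-downs that harm CDH1-null cells more than parental MCF10A cells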 (primary screen)
System: human MCF10A breast epithelial cells, parental and CDH1-null
Reagents: siRNA against human genes
Measurement: 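Cell viability by CellTiter-Glo ATP luminescence, each line scaled to the mean of mock wells across plates, then CDH1-null over parental ratio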
Reading the numbers: CDH1-null / parental viability ratio: higher = CDH1-null cells survive relatively better than parental; CDH1-null viability vs mock: higher = more viable CDH1-null cells
The whole screen tested about 18,000 reagents; this is a part drawn at random. Further read-outs or replicates are left out here. Not stated in the record: the amount of reagent, the time to read-out.

| Target gene | CDH1-null / parental viability ratio | CDH1-null viability vs mock (fraction of mock) |
| --- | --- | --- |
| SNAI3 | 1.84 | 0.9 |
| ARHGEF1 | 0.98 | 0.62 |
| TLN1 | 0.82 | 0.59 |
| EXOC3 | 1.02 | 0.61 |
| HOXA4 | 0.9 | 0.74 |
| OR52E2 | 1.09 | 0.97 |
| TRPC4AP | 1 | 0.82 |
| ADAMTS19 | 1.07 | 0.98 |
| MBD2 | 0.83 | 0.4 |
| KRTAP4-2 | 0.98 | 0.82 |
| STIM2 | 0.69 | 0.38 |
| CTNND1 | 0.98 | 0.96 |
| CD47 | 1.08 | 0.84 |
| IL33 | 1.17 | 0.7 |
| CST9 | 1.55 | 0.82 |
| HAGHL | 1.12 | 0.94 |
| GJA3 | 1.35 | 0.62 |
| BGN | 1.25 | 0.86 |
| PDE4B | 1.09 | 0.94 |
| STX18 | 0.97 | 0.97 |
| DPP3 | 1.14 | 0.96 |
| FGD4 | 0.82 | 0.62 |
| MTA3 | 1.19 | 1 |
| CPTP | 0.89 | 0.68 |
| ALG5 | 1.16 | 1 |
| TRMU | 1.03 | 0.95 |
| ONECUT3 | 1.3 | 0.56 |
| BRDT | 0.91 | 0.95 |
| IAH1 | 1.55 | 0.79 |
| G2E3 | 0.78 | 0.65 |
| MYADM | 0.88 | 0.5 |
| HEATR5B | 0.96 | 0.65 |
| RAPSN | 1.03 | 1.02 |
| VSTM4 | 1.06 | 0.9 |
| ST6GALNAC3 | 0.94 | 0.92 |
| TECTB | 1.38 | 0.44 |
| MTPN | 0.72 | 0.72 |
| ACTA2 | 1 | 0.76 |
| FLRT1 | 1.24 | 0.82 |
| NELFB | 1.13 | 0.68 |
| RTN3 | 1.13 | 1.06 |
| TMIE | 1.22 | 0.95 |
| BCR | 0.97 | 0.66 |
| B3GNT6 | 0.96 | 0.95 |
| CPLANE2 | 0.82 | 0.7 |
| SPX | 1.09 | 1.02 |

2 successive reagents from above, for reference:
| Target gene | CDH1-null / parental viability ratio | CDH1-null viability vs mock (fraction of mock) |
| --- | --- | --- |
| MTA3 | 1.19 | 1 |
| CPTP | 0.89 | 0.68 |
